According to the supplement of paper PMC6078165:
The reference is the same well before dosing, and untreated signal decays as well.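 Labels refer to human fibroblasts, largely primary: uterine (C12385, HUF), lung (H6013), bone (Hs27A), adrenal (HADF), skin (WS1), plus mammary HMF and breast cancer-associated Hs343T. Cancer lines are basal-like or mesenchymal-like triple-negative breast cancer. The paper counts as hits responses shifting over 3x the replicate standard deviation. The tissue of the other fibroblasts is not given here.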

Tested on: MDAMB231
Assay: relative JC-1 red fluorescence (viability) vs pre-drug, coculture with fibroblast (fraction); higher = more viable cancer cells
Description: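 JC-1 labelled TNBC cells cocultured 1:1 (1,500 cells each) with CellTrace Violet stained primary or stromal fibroblasts in 384-well plates in FluoroBrite medium, treated with one of 42 anticancer drugs at 0.1, 1, 10 or 100 uM. JC-1 red fluorescence (mitochondrial integrity in cancer cells only) was read by plate reader every 8 h for 72 h. Values are normalised to each well's pre-drug value. The stock of one drug was tenfold lower, so its dose labels may be too high.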

CC[C@]1(O)C[C@@H]2CN(CCc3c([nH]c4ccccc34)[C@@](C(=O)OC)(c3cc4c(cc3OC)N(C)[C@H]3[C@@](O)(C(=O)OC)[C@H](OC(C)=O)[C@]5(CC)C=CCN6CC[C@]43[C@@H]65)C2)C1 [Vinblastine]
relative JC-1 red fluorescence
Conditions | 8 h | 16 h | 24 h | 32 h | 40 h | 48 h | 56 h | 64 h | 72 h
0.1 µM, coculture fibroblast: C12385 | 0.749 | 0.707 | 0.617 | 0.5921 | 0.5229 | 0.48 | 0.4442 | 0.44274 | 0.431
0.1 µM, coculture fibroblast: H6013 | 0.84 | 0.7979 | 0.7681 | 0.755 | 0.714 | 0.709 | 0.691 | 0.682 | 0.651
0.1 µM, coculture fibroblast: H6019 | 0.769 | 0.722 | 0.68 | 0.638 | 0.59 | 0.576 | 0.551 | 0.558 | 0.5385
0.1 µM, coculture fibroblast: H6076 | 0.8381 | 0.762 | 0.702 | 0.672 | 0.626 | 0.594 | 0.5697 | 0.5691 | 0.576
0.1 µM, coculture fibroblast: H6231 | 0.945 | 0.826 | 0.743 | 0.693 | 0.639 | 0.598 | 0.551 | 0.529 | 0.506
0.1 µM, coculture fibroblast: HADF | 0.859 | 0.81 | 0.765 | 0.729 | 0.6865 | 0.656 | 0.632 | 0.621 | 0.586
0.1 µM, coculture fibroblast: HCFa | 0.8585 | 0.803 | 0.752 | 0.705 | 0.639 | 0.576 | 0.543 | 0.508 | 0.467
0.1 µM, coculture fibroblast: HCPF | 0.87543 | 0.769 | 0.6999 | 0.659 | 0.601 | 0.564 | 0.524 | 0.496 | 0.4825
0.1 µM, coculture fibroblast: HHSteC | 0.87147 | 0.882 | 0.848 | 0.814 | 0.772 | 0.722 | 0.673 | 0.641 | 0.588
0.1 µM, coculture fibroblast: HMF | 0.846 | 0.742 | 0.667 | 0.624 | 0.571 | 0.525 | 0.496 | 0.491 | 0.485
0.1 µM, coculture fibroblast: HPFa | 0.947 | 0.891 | 0.854 | 0.795 | 0.78 | 0.762 | 0.698 | 0.664 | 0.634
0.1 µM, coculture fibroblast: HUF | 0.852 | 0.7181 | 0.745 | 0.625 | 0.573 | 0.564 | 0.516 | 0.522 | 0.524
0.1 µM, coculture fibroblast: Hs5 | 0.839 | 0.782 | 0.732 | 0.691 | 0.653 | 0.599 | 0.572 | 0.549 | 0.5415
0.1 µM, coculture fibroblast: Hs27A | 0.8907 | 0.7838 | 0.756 | 0.7198 | 0.65297 | 0.598 | 0.576 | 0.558 | 0.515
0.1 µM, coculture fibroblast: Hs343T | 0.8367 | 0.738 | 0.687 | 0.661 | 0.613 | 0.57 | 0.527 | 0.515 | 0.5
0.1 µM, coculture fibroblast: WS1 | 0.727 | 0.6718 | 0.608 | 0.549 | 0.499 | 0.48 | 0.453 | 0.463 | 0.459
1 µM, coculture fibroblast: C12385 | 0.7605 | 0.731 | 0.732 | 0.69 | 0.618 | 0.607 | 0.576 | 0.601 | 0.596
1 µM, coculture fibroblast: H6013 | 0.8803 | 0.80783 | 0.797 | 0.784 | 0.743 | 0.732 | 0.721 | 0.722 | 0.686
1 µM, coculture fibroblast: H6019 | 0.7688 | 0.688 | 0.6971 | 0.6415 | 0.619 | 0.623 | 0.602 | 0.633 | 0.6105
1 µM, coculture fibroblast: H6076 | 0.834 | 0.814 | 0.794 | 0.783 | 0.7527 | 0.731 | 0.717 | 0.712 | 0.713
1 µM, coculture fibroblast: H6231 | 0.917 | 0.817 | 0.741 | 0.695 | 0.639 | 0.613 | 0.566 | 0.553 | 0.524
1 µM, coculture fibroblast: HADF | 0.873 | 0.818 | 0.795 | 0.763 | 0.722 | 0.695 | 0.671 | 0.669 | 0.639
1 µM, coculture fibroblast: HCFa | 0.897 | 0.844 | 0.819 | 0.781 | 0.736 | 0.695 | 0.655 | 0.629 | 0.577
1 µM, coculture fibroblast: HCPF | 0.9093 | 0.823 | 0.766 | 0.735 | 0.685 | 0.649 | 0.618 | 0.591 | 0.568
1 µM, coculture fibroblast: HHSteC | 0.872 | 0.853 | 0.821 | 0.785 | 0.749 | 0.729 | 0.678 | 0.663 | 0.625
1 µM, coculture fibroblast: HMF | 0.92 | 0.858 | 0.839 | 0.822 | 0.793 | 0.766 | 0.739 | 0.721 | 0.714
1 µM, coculture fibroblast: HPFa | 0.935 | 0.909 | 0.858 | 0.798 | 0.774 | 0.74 | 0.68 | 0.66 | 0.6107
1 µM, coculture fibroblast: HUF | 0.846 | 0.739 | 0.741 | 0.629 | 0.567 | 0.541 | 0.492 | 0.483 | 0.459
1 µM, coculture fibroblast: Hs5 | 0.867 | 0.822 | 0.789 | 0.75 | 0.72 | 0.673 | 0.6431 | 0.615 | 0.6017
1 µM, coculture fibroblast: Hs27A | 0.913 | 0.853 | 0.804 | 0.776 | 0.724 | 0.668 | 0.6586 | 0.639 | 0.6008
1 µM, coculture fibroblast: Hs343T | 0.8874 | 0.77 | 0.717 | 0.68 | 0.618 | 0.577 | 0.526 | 0.506 | 0.483
1 µM, coculture fibroblast: WS1 | 0.708 | 0.633 | 0.616 | 0.54 | 0.498 | 0.487 | 0.456 | 0.482 | 0.476
